Experimental data reported in patent US20100204053A1.
These are yes or no findings as the source states them, for the method shown. Binding seen in cells or lysates may run through a third protein. Some binding calls cover weakened binding; strength is not graded here.

The chains behind the UniProt entries cited, without tags or fusion partners.
UniProt A2A884: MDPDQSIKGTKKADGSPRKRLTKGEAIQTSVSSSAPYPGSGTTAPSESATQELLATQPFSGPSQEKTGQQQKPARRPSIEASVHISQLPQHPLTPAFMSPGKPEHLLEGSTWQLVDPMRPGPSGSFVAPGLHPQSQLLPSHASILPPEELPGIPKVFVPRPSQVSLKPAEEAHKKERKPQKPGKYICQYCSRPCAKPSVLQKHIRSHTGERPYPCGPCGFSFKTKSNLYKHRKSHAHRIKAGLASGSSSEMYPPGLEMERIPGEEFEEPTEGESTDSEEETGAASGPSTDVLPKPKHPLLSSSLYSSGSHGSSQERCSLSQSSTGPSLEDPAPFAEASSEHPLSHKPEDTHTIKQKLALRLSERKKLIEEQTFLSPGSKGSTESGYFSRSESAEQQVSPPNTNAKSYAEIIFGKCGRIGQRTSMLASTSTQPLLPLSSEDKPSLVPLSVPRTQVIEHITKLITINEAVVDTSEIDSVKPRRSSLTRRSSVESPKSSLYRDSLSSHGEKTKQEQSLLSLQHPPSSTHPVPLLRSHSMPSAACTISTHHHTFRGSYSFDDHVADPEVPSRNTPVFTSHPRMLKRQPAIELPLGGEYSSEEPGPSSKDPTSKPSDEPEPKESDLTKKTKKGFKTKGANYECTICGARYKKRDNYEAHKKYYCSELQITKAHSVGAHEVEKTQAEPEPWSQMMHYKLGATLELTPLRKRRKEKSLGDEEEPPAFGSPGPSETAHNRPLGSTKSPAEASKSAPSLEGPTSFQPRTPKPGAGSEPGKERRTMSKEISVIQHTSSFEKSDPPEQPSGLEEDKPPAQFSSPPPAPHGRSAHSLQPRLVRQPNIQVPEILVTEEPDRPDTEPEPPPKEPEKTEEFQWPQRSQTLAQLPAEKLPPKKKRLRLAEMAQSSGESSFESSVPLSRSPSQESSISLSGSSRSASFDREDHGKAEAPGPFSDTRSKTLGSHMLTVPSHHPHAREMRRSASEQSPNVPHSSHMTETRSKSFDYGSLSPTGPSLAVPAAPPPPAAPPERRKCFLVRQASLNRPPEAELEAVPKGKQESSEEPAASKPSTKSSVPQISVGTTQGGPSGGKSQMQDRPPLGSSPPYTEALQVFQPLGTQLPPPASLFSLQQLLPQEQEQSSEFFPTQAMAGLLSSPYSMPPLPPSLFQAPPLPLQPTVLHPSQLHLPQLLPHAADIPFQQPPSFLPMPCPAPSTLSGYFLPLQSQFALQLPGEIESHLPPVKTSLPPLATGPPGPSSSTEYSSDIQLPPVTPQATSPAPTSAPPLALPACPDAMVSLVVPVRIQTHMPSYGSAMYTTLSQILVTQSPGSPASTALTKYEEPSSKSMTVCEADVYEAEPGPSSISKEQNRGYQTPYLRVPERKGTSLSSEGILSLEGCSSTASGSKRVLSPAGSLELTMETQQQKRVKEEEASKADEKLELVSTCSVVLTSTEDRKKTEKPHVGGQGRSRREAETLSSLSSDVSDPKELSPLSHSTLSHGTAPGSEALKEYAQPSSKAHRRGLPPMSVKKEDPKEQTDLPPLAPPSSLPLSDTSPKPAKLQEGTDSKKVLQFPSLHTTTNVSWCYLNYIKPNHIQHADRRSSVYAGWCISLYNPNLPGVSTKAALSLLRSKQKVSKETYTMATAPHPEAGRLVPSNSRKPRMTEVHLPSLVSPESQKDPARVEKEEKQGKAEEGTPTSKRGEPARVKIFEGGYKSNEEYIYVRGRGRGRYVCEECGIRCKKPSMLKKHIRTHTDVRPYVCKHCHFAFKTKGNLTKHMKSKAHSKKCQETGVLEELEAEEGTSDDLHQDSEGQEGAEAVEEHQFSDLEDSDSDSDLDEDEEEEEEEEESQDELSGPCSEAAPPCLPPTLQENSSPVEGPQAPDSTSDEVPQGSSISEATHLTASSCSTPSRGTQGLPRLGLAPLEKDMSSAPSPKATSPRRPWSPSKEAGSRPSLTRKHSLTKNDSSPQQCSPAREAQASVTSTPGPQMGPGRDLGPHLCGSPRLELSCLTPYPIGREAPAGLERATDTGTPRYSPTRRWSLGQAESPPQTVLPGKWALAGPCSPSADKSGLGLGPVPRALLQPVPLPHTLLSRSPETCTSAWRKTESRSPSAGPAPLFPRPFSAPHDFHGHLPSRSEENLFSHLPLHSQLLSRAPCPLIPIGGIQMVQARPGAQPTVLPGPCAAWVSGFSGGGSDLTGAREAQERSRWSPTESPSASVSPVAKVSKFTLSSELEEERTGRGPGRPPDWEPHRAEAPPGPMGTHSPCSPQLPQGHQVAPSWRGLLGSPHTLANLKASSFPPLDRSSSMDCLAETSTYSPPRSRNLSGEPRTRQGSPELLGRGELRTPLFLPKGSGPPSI

Experiments:
[1] = target: endogenous Shn3 in MC3T3-E1 osteoblastic cells (UniProt A2A884); test: co-immunoprecipitation of endogenous proteins (anti-Runx2 IP, Shn3 immunoblot) from differentiated MC3T3-E1 cells, with or without TGF-β
[2] = target: endogenous Runx2 in MC3T3-E1 osteoblastic cells (UniProt Q08775); test: restatement of the co-immunoprecipitation result with TGFβ treatment

binding [1]	binding [2]	Substance
binds	–	endogenous Runx2 in MC3T3-E1 osteoblastic cells (from UniProt Q08775 1-528)
–	binds	endogenous Shn3 in MC3T3-E1 osteoblastic cells (from UniProt A2A884 1-2348)
